# Cleaved PARP in drug-treated melanoma cells

Source: doi:10.1371/journal.pone.0140310, primary screening data, rounded.

Compounds and concentrations:
vorinostat (400 nM): O=C(CCCCCCC(=O)Nc1ccccc1)NO
bortezomib (5 nM): CC(C)C[C@H](NC(=O)[C@H](Cc1ccccc1)NC(=O)c1cnccn1)B(O)O
decitabine (500 nM): Nc1ncn([C@H]2C[C@H](O)[C@@H](CO)O2)c(=O)n1
SU6656 (2000 nM): CN(C)S(=O)(=O)c1ccc2c(c1)/C(=C/c1cc3c([nH]1)CCCC3)C(=O)N2
VX-702 (2000 nM): NC(=O)c1ccc(N(C(N)=O)c2c(F)cccc2F)nc1-c1ccc(F)cc1F
darinaparsin (2000 nM): C[As](C)SC[C@H](NC(=O)CC[C@H](N)C(=O)O)C(=O)NCC(=O)O
L-779450 (1000 nM): Oc1cc(-c2nc(-c3ccccc3)[nH]c2-c2ccncc2)ccc1Cl

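Human melanoma cell lines in 1,536-well plates were treated with a pair of drugs for 72 h, then fixed, stained and imaged. Each value is the cleaved-PARP-positive fraction of nuclei relative to DMSO-treated wells, in %, so that 100 equals the control and higher values mean more apoptosis. Every drug was used at one fixed concentration, the higher of two screened. The file gives one value for each pair and line, without errors, so small differences may be noise. Basal and induced levels differ widely between cell lines.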
Only some of the drugs and lines screened are listed, without regard to their results.
An entry leaves out what has no value listed here.

{"combination": "decitabine + bortezomib", "WM451Lu": 549, "WM1745": 713}
{"combination": "darinaparsin + L-779450", "WM451Lu": 265, "WM1745": 295}
{"combination": "VX-702 + L-779450", "WM451Lu": 189}
{"combination": "VX-702 + darinaparsin", "WM451Lu": 78.1, "WM1745": 79.3}
{"combination": "SU6656 + bortezomib", "WM451Lu": 647, "WM1745": 254}
{"combination": "vorinostat + bortezomib", "WM451Lu": 2120, "WM1745": 941}
{"combination": "L-779450 + decitabine", "WM451Lu": 749}
{"combination": "bortezomib + L-779450", "WM451Lu": 6000}
{"combination": "decitabine + SU6656", "WM451Lu": 236, "WM1745": 167}
{"combination": "darinaparsin + decitabine", "WM451Lu": 45.2, "WM1745": 84.0}
{"combination": "SU6656 + L-779450", "WM451Lu": 478, "WM1745": 412}
{"combination": "darinaparsin + vorinostat", "WM451Lu": 180, "WM1745": 190}
{"combination": "vorinostat + VX-702", "WM451Lu": 49.6, "WM1745": 110}
{"combination": "darinaparsin + SU6656", "WM451Lu": 192, "WM1745": 101}
{"combination": "VX-702 + decitabine", "WM451Lu": 81.6, "WM1745": 107}
{"combination": "vorinostat + L-779450", "WM451Lu": 55.4, "WM1745": 152}
{"combination": "VX-702 + bortezomib", "WM451Lu": 648, "WM1745": 558}
{"combination": "decitabine + vorinostat", "WM451Lu": 79.4, "WM1745": 120}
{"combination": "darinaparsin + bortezomib", "WM451Lu": 448, "WM1745": 198}
{"combination": "VX-702 + SU6656", "WM451Lu": 270, "WM1745": 124}
{"combination": "SU6656 + vorinostat", "WM451Lu": 86.0, "WM1745": 93.1}

Some entries from above, unchanged:

Combination	WM451Lu	WM1745
VX-702 + bortezomib	648	558
darinaparsin + SU6656	192	101